Each structure is given as a SMILES string. pIC50: −log10 of the molar value. The structures given here were assigned with low confidence; some may be wrong.

By UniProt entry, the sequences of proteins in these tests, tags left out.
UniProt O75530, whole entry: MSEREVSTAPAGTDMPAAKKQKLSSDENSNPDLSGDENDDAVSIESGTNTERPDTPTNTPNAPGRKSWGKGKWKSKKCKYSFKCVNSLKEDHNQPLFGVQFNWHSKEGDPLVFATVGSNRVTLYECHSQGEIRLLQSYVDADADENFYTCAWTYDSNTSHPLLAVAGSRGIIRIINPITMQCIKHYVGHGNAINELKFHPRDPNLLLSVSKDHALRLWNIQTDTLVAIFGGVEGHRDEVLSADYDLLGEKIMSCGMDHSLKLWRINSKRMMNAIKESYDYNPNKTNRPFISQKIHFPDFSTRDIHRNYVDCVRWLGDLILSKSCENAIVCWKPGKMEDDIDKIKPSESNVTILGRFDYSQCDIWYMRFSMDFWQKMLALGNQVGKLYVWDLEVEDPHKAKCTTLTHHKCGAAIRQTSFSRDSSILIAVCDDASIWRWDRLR

Consider 25 compounds from EP4831176A1, “BICYCLIC FUSED HETEROAROMATIC RING DERIVATIVE, AND PHARMACEUTICAL COMPOSITION AND USE THEREOF” (dated 2026).

For one assay, the system named is Pfeiffer cells. In words: Proliferation inhibition of Pfeiffer tumor cells, Cell Titer-Glo. The settings on record: read-out: CTG IC50, 144 hours incubation. From the text:
In this experiment, Cell Titer-Glo reagent was used to quantitatively analyze the proliferation activity of Pfeiffer cells to detect the inhibitory ability of the compounds on tumor cell proliferation. The specific steps were as follows: • 1. Pfeiffer cells were purchased from Nanjing Cobioer (purchased from ATCC, Catalog No. #CRL2632), subcultured and maintained in logarithmic growth state using RPMI-1640 complete medium (containing 10% v/v fetal bovine serum) according to the supplier's recommended conditions. […] Before cell seeding, cells were collected in a centrifuge tube, centrifuged at 250 rcf for 3 minutes, and the culture medium was discarded. The cells were resuspended in fresh complete medium, and 20 µL of the cell suspension was taken to calculate the cell concentration using a Countstar cell counter. After adjusting the density, cells were seeded into a 384-well plate at 2,000 cells/45 µL and pre-incubated in a 37°C, 5% CO2 incubator for 4 hours. • 3. The negative and positive control groups were treated with 5 µL of control solution (non-complete medium containing 1% v/v DMSO). Compound gradient dilutions were prepared using non-complete medium, and 5 µL of the dilutions were added to the corresponding culture wells. The final concentration of DMSO in the test was 0.1% v/v. Subsequently, the plate was incubated in a 37°C, 5% CO2 incubator for 144 hours. • 4. 40 µL of Cell Titer-Glo reagent was added directly to the cell culture, and the plate was incubated at room temperature in the dark for 30 minutes. The luminescence value was then read on a plate reader, and the results were used to analyze the cell proliferation ratio and compound activity. • 5. The signal value of the negative control group was set as Bottom, and the signal value of the positive control group was set as Top. The compound concentration value (logarithm) was the X-axis, and the luminescence reading at the corresponding concentration was the Y-axis, with HillSlope as the slope factor. A four-parameter logistic model (4PL logistic model) was used for fitting, and the calculation method was as follows:Y = Bottom + (Top - Bottom) / (1 + 10^((Log IC50 - X) × HillSlope))
After fitting, the IC50 value of the compound was calculated, and the proliferation inhibitory activity of the compound was compared based on the IC50 value.

A further assay deals with EED protein (Homo sapiens, UniProt O75530). The assay can be described thus: EED protein degradation in Karpas-422 cells, In-cell western (ICW). Conditions: 18 hours incubation. From the text:
In this experiment, In-cell western (ICW) method was used to quantitatively analyze the EED protein expression level in Karpas-422 cells to detect the degradation activity of the compounds on the target protein. The specific steps were as follows: • 1. Karpas-422 cells were purchased from Nanjing Cobioer (Catalog No. CBP60629), subcultured and maintained in logarithmic growth state using RPMI-1640 complete medium (containing 10% v/v fetal bovine serum) according to the supplier's recommended conditions. […] One day before cell seeding, a 384-well plate was coated with 30 µL of coating buffer (phosphate buffered saline containing 30 µg/mL poly-D-lysine) at room temperature for 2 hours. The coating solution was then discarded, and the plate was washed once with 90 µL of phosphate buffered saline, which was then discarded. The plate was allowed to air dry naturally in a clean bench, wrapped around the edges with Parafilm to prevent moisture, and stored in a 4°C refrigerator until use. • 3. Before cell seeding, cells were collected in a centrifuge tube, centrifuged at 250 rcf for 3 minutes, and the culture medium was discarded. The cells were resuspended in fresh complete medium, and 20 µL of the cell suspension was taken to calculate the cell concentration using a Countstar cell counter. After adjusting the density, cells were seeded into the prepared coated plate at 15,000 cells/45 µL and pre-incubated in a 37°C, 5% CO2 incubator for 4 hours. • 4. The negative and positive control groups were treated with 5 µL of control solution (serum-free medium containing 1% v/v DMSO). Compound gradient dilutions were prepared using the control solution, and 5 µL of the dilutions were added to the corresponding culture wells. The final concentration of DMSO in the test was 0.1% v/v. Subsequently, the plate was incubated in a 37°C, 5% CO2 incubator for 18 hours. • 5. The culture plate was removed, and cells were fixed by directly adding 10 µL of fixative solution (phosphate buffered saline containing 3% v/v glutaraldehyde) to the cells and incubating at room temperature for 30 minutes. The liquid was discarded. Subsequently, cells were treated with 30 µL of permeabilization staining solution (phosphate buffered saline containing 0.1% v/v Triton X-100 and 20 µg/mL Hoechst 33342) at room temperature for 30 minutes. The permeabilization solution was discarded, and the fluorescence value (excitation at 360 nm, emission at 460 nm) was read on a microplate reader. • 6. 50 µL of repair solution (50 mM citric acid buffer) was added to all wells, and the plate was incubated at 70°C for 2 hours on a constant temperature incubation shaker. The microplate was then removed, equilibrated to room temperature, and the liquid was discarded. • 7. A sufficient amount of antibody dilution buffer (Tris Buffered Saline-Tween solution containing 1% w/v bovine serum albumin) was prepared and stored in a 4°C refrigerator until use. • 8. Primary antibody dilution (EED antibody diluted 1:1000 with antibody dilution buffer) was prepared. 30 µL of antibody dilution buffer without antibody was added to the negative control group. 30 µL of the primary antibody dilution was added to the cells in the other groups, and the plate was incubated overnight at 4°C. • 9. The primary antibody dilution was discarded. The plate was washed 3 times with 90 µL of Tris Buffered Saline-Tween solution, and the wash solution was discarded. Secondary antibody dilution (HRP-linked antibody diluted 1:500 with antibody dilution buffer) was prepared, and 30 µL was added to the cells. The plate was incubated at room temperature for 2 hours. • 10. The secondary antibody dilution was discarded. The plate was washed 3 times with 90 µL of Tris Buffered Saline-Tween solution, and the wash solution was discarded. 30 µL of TMB substrate solution was added, and the plate was incubated at room temperature in the dark for 15 minutes. Then, 30 µL of stop solution (2 M sulfuric acid) was added to terminate the reaction. […]

Take `Cn1c(=O)n(C2CCC(=O)NC2=O)c2ccc(N3CCC(CN4CCC(NC(=O)c5ccc(-c6cnc(NCc7c(F)ccc8c7CCO8)n7cnc(Cl)c67)cn5)CC4)CC3)cc21` (centres unmarked): the pIC50 in the assay on Pfeiffer cells is above 10.00. In addition, at EED protein, the Dmax amounted to 67%.

In the case of `Cc1ncsc1-c1ccc([C@H](C)NC(=O)[C@@H]2C[C@@H](O)CN2C(=O)[C@@H](NC(=O)CCCNC(=O)c2ccc(-c3cnc(NCc4c(F)ccc5c4CCO5)n4cnc(Cl)c34)cn2)C(C)(C)C)cc1`, the pIC50 in the assay with Pfeiffer cells is 8.15. Also, on EED protein, the Dmax was 75%.

On to `Cc1ncsc1-c1ccc([C@H](C)NC(=O)[C@@H]2C[C@@H](O)CN2C(=O)C(c2cc(N3CCN(CC4CCN(c5ccc(-c6cnc(NCc7c(F)ccc8c7CCO8)n7cnnc67)cc5)CC4)CC3)no2)C(C)C)cc1` (some centres unmarked), for which the pIC50 in the assay with Pfeiffer cells is 8.30. On EED protein, this compound had a Dmax of 74%.

As to `Cc1nc(C2CCN(CC3CCN(c4ccc5c(c4)n(C)c(=O)n5C4CCC(=O)NC4=O)CC3)CC2)ccc1-c1cnc(NCc2c(F)ccc3c2CCO3)n2cc(C(N)=O)nc12` (centres unmarked), in the assay with Pfeiffer cells, the negative-log IC50 (pIC50) was 9.30. Also, the Dmax at EED protein amounted to 65%.

Regarding `Cc1ncsc1-c1ccc([C@H](C)NC(=O)[C@@H]2C[C@@H](O)CN2C(=O)[C@@H](NC(=O)CCCNC(=O)c2ccc(-c3cnc(NCc4c(F)ccc5c4CCO5)n4cnc(C(F)(F)F)c34)cn2)C(C)(C)C)cc1`, the pIC50 in the assay on Pfeiffer cells was 7.28. At EED protein, this compound yielded a Dmax of 81%.

Take `O=C1CCC(N2C(=O)c3ccc(N4CCC(CN5CCC(Nc6ccc(-c7cnc(NCc8c(F)ccc9c8CCO9)n8cnc(Cl)c78)cc6)CC5)CC4)cc3C2=O)C(=O)N1` (centres unmarked): the pIC50 with Pfeiffer cells was 7.19. On EED protein, this compound returned a Dmax of 36%.

For the compound `Cn1nc(C2CCC(=O)NC2=O)c2ccc(N3CCC(CN4CCC(c5ccc(-c6cnc(NCc7c(F)ccc8c7CCO8)c7nc(C#N)cn67)cc5)CC4)CC3)cc21` (centres unmarked), in the assay on Pfeiffer cells, the pIC50 is 8.15. This compound had a Dmax at EED protein of 48%.

For the compound `Cc1nc(N2CCN(CC3CCN(c4ccc5c(C6CCC(=O)NC6=O)nn(C)c5c4)CC3)CC2)ccc1-c1cnc(NCc2c(F)ccc3c2CCO3)n2cnc(Cl)c12` (centres unmarked), the pIC50 in the assay on Pfeiffer cells is 7.89. The compound also returned a Dmax on EED protein of 62%.

As to `Cc1nn(C2CCN(CC3CCN(c4ccc5c(C6CCC(=O)NC6=O)nn(C)c5c4)CC3)CC2)c(C)c1-c1cnc(NCc2c(F)ccc3c2CCO3)n2cnc(Cl)c12` (centres unmarked), in the assay on Pfeiffer cells, the pIC50 is 8.40. This compound also yielded a Dmax at EED protein of 65%.

Consider `Cn1nc(C2CCC(=O)NC2=O)c2ccc(N3CCC(CN4CCC(n5ncc(-c6cnc(NCc7c(F)ccc8c7CCO8)n7cnc(Cl)c67)c5C(F)(F)F)CC4)CC3)cc21` (centres unmarked), for which the pIC50 in the assay on Pfeiffer cells was 7.70. The maximal degradation (Dmax) on EED protein turned out to be 64%.

Consider `O=C1CCC(N2C(=O)c3ccc(N4CCC(CN5CCC(c6ccc(-c7cnc(NCc8c(F)ccc9c8CCO9)n8cnc(F)c78)cc6)CC5)CC4)cc3C2=O)C(=O)N1` (centres unmarked), for which the pIC50 with Pfeiffer cells is 7.25. Also, the Dmax on EED protein is given as 29%.

Turning to `Cn1nc(C2CCC(=O)NC2=O)c2cc(F)c(N3CCC(CN4CCC(c5ccc(-c6cnc(NCc7c(F)ccc8c7CCO8)n7cnc(F)c67)cc5)CC4)CC3)cc21` (centres unmarked), the pIC50 in the assay on Pfeiffer cells is 8.40. On EED protein, this compound gave a Dmax of 64%.

Consider `Cn1c(=O)n(C2CCC(=O)NC2=O)c2cc(F)c(N3CCC(CN4CCC(c5ccc(-c6cnc(NCc7c(F)ccc8c7CCO8)n7cnnc67)cc5)CC4)CC3)cc21` (centres unmarked), for which, in the assay with Pfeiffer cells, the pIC50 is 9.30. Besides, the Dmax at EED protein amounted to 71%.

On to `Cn1nc(C2CCC(=O)NC2=O)c2ccc(N3CCN(C4CCN(Cc5ccc(-c6cnc(NCc7c(F)ccc8c7CCO8)n7cnc(Cl)c67)cc5)CC4(F)F)CC3)cc21` (centres unmarked), for which the pIC50 in the assay on Pfeiffer cells is 8.23. At EED protein, this compound gave a Dmax of 47%.

For the compound `Cn1nc(C2CCC(=O)NC2=O)c2ccc(N3CCC(CN4CCC(c5ccc(-c6cnc(NCc7c(F)ccc8c7CCO8)n7cc(C#N)nc67)cc5)CC4)CC3)cc21` (centres unmarked), the pIC50 with Pfeiffer cells is 8.80. Further, the Dmax at EED protein is on record as 65%.

Regarding `Cc1nc(C2CCN(CC3CCN(c4ccc5c(c4)n(C)c(=O)n5C4CCC(=O)NC4=O)CC3)CC2)ccc1-c1cnc(NCc2c(F)ccc3c2CCO3)n2cnc(Cl)c12` (centres unmarked), the pIC50 with Pfeiffer cells is 7.82. On EED protein, this compound displayed a Dmax of 41%.

For the compound `Cn1nc(C2CCC(=O)NC2=O)c2ccc(N3CCC(CN4CCC(NC(=O)c5ccc(-c6cnc(NCc7c(F)ccc8c7CCO8)n7cnc(Cl)c67)cn5)CC4)CC3)cc21` (centres unmarked), the pIC50 with Pfeiffer cells is 9.15. The compound also displayed a Dmax at EED protein of 66%.

Regarding `N#Cc1cn2c(NCc3c(F)ccc4c3CCO4)ncc(-c3ccc(C4CCN(CC5CCN(c6ccc7c(c6)C(=O)N(C6CCC(=O)NC6=O)C7=O)CC5)CC4)cc3)c2n1` (centres unmarked), the pIC50 in the assay on Pfeiffer cells was 8.05. The compound further had a Dmax on EED protein of 59%.

On to `Cn1nc(C2CCC(=O)NC2=O)c2ccc(N3CCC(F)(CN4CCC(c5ncc(-c6cnc(NCc7c(F)ccc8c7CCO8)n7cnc(Cl)c67)cn5)CC4)CC3)cc21` (centres unmarked), for which, in the assay with Pfeiffer cells, the pIC50 was 9.46. For the same compound, the Dmax at EED protein is 69%.

In the case of `Cn1nc(C2CCC(=O)NC2=O)c2ccc(N3CCC(CN4CCC(c5ccc(-c6cnc(NCc7c(F)ccc8c7CCO8)n7cnc(Cl)c67)c(C(F)(F)F)n5)CC4)CC3)cc21` (centres unmarked), the pIC50 in the assay with Pfeiffer cells is 8.30. On EED protein, this compound returned a Dmax of 58%.

Regarding `Cn1nc(C2CCC(=O)NC2=O)c2cc(F)c(N3CCC(CN4CCC(c5ncc(-c6cnc(NCc7c(F)ccc8c7CCO8)n7cnc(Cl)c67)cn5)CC4)CC3)cc21` (centres unmarked), the pIC50 in the assay on Pfeiffer cells was 7.68. This compound also gave a Dmax on EED protein of 39%.

With `Cc1cc(CN2CCC(N3CCN(c4ccc5c(C6CCC(=O)NC6=O)nn(C)c5c4)CC3)C(F)(F)C2)ccc1-c1cnc(NCc2c(F)ccc3c2CCO3)n2cnc(Cl)c12` (centres unmarked), in the assay on Pfeiffer cells, the pIC50 is 8.14. This compound had a Dmax at EED protein of 45%.

Turning to `Cc1ncsc1-c1ccc([C@H](C)NC(=O)[C@@H]2C[C@@H](O)CN2C(=O)[C@@H](NC(=O)CCCNC(=O)c2ccc(-c3cnc(NCc4c(F)ccc5c4CCO5)n4cnc(Br)c34)cn2)C(C)(C)C)cc1`, in the assay with Pfeiffer cells, the pIC50 is 8.00. This compound displayed a Dmax at EED protein of 73%.

In the case of `Cc1nc(C2CCN(CC3CCN(c4ccc5c(c4)n(C)c(=O)n5C4CCC(=O)NC4=O)CC3)CC2)ccc1-c1cnc(NCc2c(F)ccc3c2CCO3)n2cc(C#N)nc12` (centres unmarked), the pIC50 in the assay with Pfeiffer cells is 9.30. The compound also came in with a Dmax on EED protein of 70%.

In the case of `Cn1nc(C2CCC(=O)NC2=O)c2ccc(N3CCC(CN4CCC(n5cc(-c6cnc(NCc7c(F)ccc8c7CCO8)n7cnc(Cl)c67)c(C(F)(F)F)n5)CC4)CC3)cc21` (centres unmarked), in the assay with Pfeiffer cells, the pIC50 is 7.60. The compound also gave a Dmax at EED protein of 54%.
